# For some assays here: A negative result means that nothing was seen under these conditions. For some assays here: For at least one entry, the source does not settle the construct or the ends of the probe.
# Assays:
# [1] = target: thrombin / Factor II in rat whole blood (Rattus norvegicus) (UniProt P18292); experiment: inhibition of the protein; details: protein in an extract, protein details: endogenous, single-stranded DNA, dose not given here
# [2] = tested on: alpha-thrombin (native) (Homo sapiens); experiment: binding assay; details: CITED, purified native protein, single-stranded DNA
# [3] = tested on: clot-bound thrombin (Homo sapiens); experiment: inhibition of the protein; details: protein in an extract, protein details: endogenous, washed clots from platelet-rich plasma, single-stranded DNA; for functional effect of the aptamer: concentration-dependent, 50 mM Tris pH 7.4, 100 mM NaCl, 37 C
# [4] = tested on: thrombin (inhibitor screening kit enzyme); experiment: inhibition of the protein; details: dose-dependent inhibition of AMC substrate cleavage, 37 C, protein details: Abcam ab197007 kit, single-stranded DNA, dose not given here
# [5] = target: thrombin / Factor II in citrated plasma or whole blood (Homo sapiens) (UniProt P00734); experiment: inhibition of the protein; details: protein in an extract, protein details: endogenous, Rockland citrated blood R214-0050, single-stranded DNA; for functional effect of the aptamer (% reduction of Factor II activity): 2 uM in citrated plasma, 2 h
# [6] = tested on: alpha-thrombin (native) (Homo sapiens); experiment: ELONA; details: purified native protein, single-stranded DNA
sequence,measurement,setting,value
GCGGTGTTGCTGGGGTTGGGAGGTTGGAGGAAGCAATCGC [3'PEG AYA1809002],functional effect of the aptamer,"[1]; 3' PEG spacer (3Sp18), variant of AYA1809002",active
AGTCCGTGGTAGGGCAGGTTGGGGTGACT [HD22],binding result,[2]; binds exosite II,binds
GCGGTGTTGCTGGGGTTGGGAGGTTGGAGGAAGCAATCGC [AYA1809002],functional effect of the aptamer,"[1]; label: 5' biotin (ELISA, BLI)",active
same,functional effect of the aptamer,"[3]; stronger than AYA1809004, label: 5' biotin (ELISA, BLI)",active
same,functional effect of the aptamer,"[4]; label: 5' biotin (ELISA, BLI)",active
AGGGGCTCTAGGGTGGGTAGGATGGTGAGACCGCAGCGT [AYA1809007],functional effect of the aptamer (% reduction of Factor II activity),"[5]; PT 2-fold, APTT 3-fold increase, label: biotin (ELISA)",> 75
same,binding result,[6]; label: biotin (ELISA),binds
TCGTCAAGGTACGGTTGGGGGGGTGGGTGTTGACGTTGAA [AYA1809004],functional effect of the aptamer (% reduction of Factor II activity),"[5]; PT 3-fold, APTT about 4-fold increase, label: 5' biotin (ELISA)",> 85
same,functional effect of the aptamer,"[3]; less than AYA1809002, label: 5' biotin (ELISA)",active
same,functional effect of the aptamer,[4]; label: 5' biotin (ELISA),active
same,Kd,"[6]; 20 mM Tris pH 7.5, 150 mM NaCl, 0.1% BSA, 0.1% Tween 20, salmon sperm DNA, RT, competed by 100-fold unlabeled aptamer, label: 5' biotin (ELISA)",13 nM
GGTTGGTGTGGTTGG [HD1],binding result,[2]; binds exosite I of prothrombin and thrombin,binds
same,functional effect of the aptamer (% inhibition of clot-bound thrombin),"[3]; CITED, in vivo, dose not given here",> 80
TCGTCAAGGTACGGTTGGGGGGGTGGGTGTTGACGTTGAA [3'Chol AYA1809004],functional effect of the aptamer,"[5]; 3' cholesterol-TEG (3CholTEG), variant of …, dose not given here",not active

# Reference: patent US20250304973
